System: HEK293T proteins
Test: Codon usage analysis of TMT-quantified labeled proteins
Format: cell-based, human
Conditions: TTT/TTC for Phe; TAT/TAC for Tyr
From the text: FIG. 13: ScTyrY43G and MmPheT413G label proteins via both of their cognate codons. […] Proteins were TMT-labeled and quantified by mass spectrometry (FIG. 4). […] Data plotted as mean+SEM. *P<0.05; t-test.
Codon usage analysis. To determine whether ScTyrY43G and MmPheT413G are capable of labeling via both of their cognate codons (TAT and TAC for ScTyrY43G; and TTT and TTC for MmPheT413G), cDNA sequences of TMT-quantified HEK293T proteins were retrieved via the Ensembl human genome database (Human release 92). cDNA sequences were parsed into codon triplets and the number of the four aforementioned codons counted for each protein. […] This yielded a list of proteins that were labeled by ScTyrY43G or MmPheT413G uniquely via that codon.

B1: MmPheT413G: mouse phenylalanyl-tRNA synthetase with T413G substitution, charges AzF onto tRNA-Phe; SEQ ID NO:5 (protein)
chain: MADNPVLELLLRRLEVADGGLDSAELATQLGVEHQAVVGAVKSLQALGEVIEAELRSTKCWELTTEGEEIAREGSHEARVFRSIPLEGLVQSELMHLPSGKVGFSKAMSNKWIRVDKSAADGPRVFRVVDSIEDEVQKRLQLVQAGQAEKLAEKERNELRKRKLLTEVILKTYWVSKGKAFSTSVSKQEAELSPEMISSGSWRDRPFKPYNFSARGVLPDSGHLHPLLKVRSQFRQIFLEMGFTEMPTDNFIESSFWNFDALFQPQQHPARDQHDTFFLRDPAEALQLPMGYVQRVKRTHSQGGYGSQGYKYTWKLEEARKNLLRTHTTAASARALYQLAQKKPFTPAKYFSIDRVFRNETLDATHLAEFHQIEGVIADHGLTLGHLMGVLREFFTKLGITQLRFKPAYNPYGEPSMEVFSYHQGLKKWVEVGNSGVFRPEMLLPMGLPENVSVIAWGLSLERPTMIKYGINNIRELVGHKVNLQMVYDSPVCRLDIEPRSSKTQEAA
cognate codon preference of labeling: preferentially labels the TTT codon

B2: ScTyrY43G: yeast tyrosyl-tRNA synthetase with Y43G substitution, charges AzY onto tRNA-Tyr; SEQ ID NO:4 (protein)
chain: MSSAATVDPNEAFGLITKNLQEVLNPQIIKDVLEVQKRHLKLGWGTAPTGRPHCGYFVPMTKLADFLKAGCEVTVLLADLHAFLDNMKAPLEVVNYRAKYYELTIKAILRSINVPIEKLKFVVGSSYQLTPDYTMDIFRLSNIVSQNDAKRAGADVVKQVANPLLSGLIYPLMQALDEQFLDVDCQFGGVDQRKIFVLAEENLPSLGYKKRAHLMNPMVPGLAQGGKMSASDPNSKIDLLEEPKQVKKKINSAFCSPGNVEENGLLSFVQYVIAPIQELKFGTNHFEFFIDRPEKFGGPITYKSFEEMKLAFKEEKLSPPDLKIGVADAINELLEPIRQEFADNKEFQEASEKGYPVATPQKSKKAKKPKNKGTKYPGATKTNEIATKLEETKL
cognate codon preference of labeling: labels both its cognate codons equally

From US11921118B2, “Methods for proteome labeling” (The Board of Trustees of the Leland Stanford Junior …, priority 2018, dated 2024)
